Among the data in paper PMC7819943, “Rice protein-binding microarrays: a tool to detect cis-acting elements near promoter regions in rice” are binding signal values, retold here.

This is one part of the list.

The target in the experiment is T1, OsSMF1 (Oryza sativa, UniProt Q6ZLB0 1-436).
T1 sequence: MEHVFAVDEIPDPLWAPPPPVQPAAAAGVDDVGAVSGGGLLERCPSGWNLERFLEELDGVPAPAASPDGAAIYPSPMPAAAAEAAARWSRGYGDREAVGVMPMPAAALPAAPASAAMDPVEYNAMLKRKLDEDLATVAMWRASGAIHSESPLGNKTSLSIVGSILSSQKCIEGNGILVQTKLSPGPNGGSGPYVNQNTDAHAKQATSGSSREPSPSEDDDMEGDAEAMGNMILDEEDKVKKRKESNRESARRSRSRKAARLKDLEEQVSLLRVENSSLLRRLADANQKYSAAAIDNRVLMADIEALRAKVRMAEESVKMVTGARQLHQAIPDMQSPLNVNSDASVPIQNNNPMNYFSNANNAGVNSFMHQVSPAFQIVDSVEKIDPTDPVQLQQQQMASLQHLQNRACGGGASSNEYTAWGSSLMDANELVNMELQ
Put plainly: protein-binding microarray (RPBM); PBS, 2% BSA, 51.3 ng/ul salmon testes DNA, 50 uM zinc acetate, 200 nM TF, 25 C, 1 h; high values mean tight binding. The note with it: protein: recombinant; tags: N-terminal polyhistidine and DsRed monomer fusion (pET32a); chain copies: 2; label: CyDye5-dUTP incorporated in the synthesized complementary strand; 3' TTTTT single-stranded linker to array surface; dsDNA, one strand shown. Summed up: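 Transcription factors, each fused N-terminally to a polyhistidine tag and DsRed, were expressed in E. coli BL21-CodonPlus and purified on Ni–NTA. A custom Agilent array was made double-stranded by primer extension with Cy5-dUTP and blocked with 2% BSA. It was incubated with 200 nM protein in PBS, 2% BSA, salmon testes DNA and 50 µM zinc acetate at 25 °C for 1 h, then washed. The binding signal is per-feature fluorescence intensity (arbitrary units) read on an Axon 4000B scanner.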
In the case of “CTCGTCCTGAATCGCCACGTGGCATCAGTCCCAGCCGTTGCGGAGTCACCTAGTGCAG”, the binding signal is 36300 fluorescence intensity (a.u.).
For the sequence “ACAGGGTTGCCAAGCTCTTACTCAACCTAAACCACCAGAACGGAGTCACCTAGTGCAG”, the binding signal is 3200 fluorescence intensity (a.u.).
The same measure for “GGCGAGCGGCGCGAAGCTCGCCAGCGTGGCGCCGAGGGAGCGGAGTCACCTAGTGCAG”: 3700 fluorescence intensity (a.u.); for “CCAGTCTAACCAGGCTGAACTGCCACGCTCACACCCTTCTCGGAGTCACCTAGTGCAG”: 3570 fluorescence intensity (a.u.).
The same measure for “GGCGGCAGCAAGAGGGGTCCGCCCTCTGCGGCGCTGGCAACGGAGTCACCTAGTGCAG”: 3270 fluorescence intensity (a.u.).
With “ACGTCTTGGCGTCTTGGCCTCATGGGCACCTGACGTGAGACGGAGTCACCTAGTGCAG” the figure was 3720 fluorescence intensity (a.u.); with “TGGCTAAGTTTGGTAAGAATTTGAGTCTATAACGTGTAGGCGGAGTCACCTAGTGCAG”, 3640 fluorescence intensity (a.u.).
For the sequence “GAGACGGGCCCGTCACTAACCCATCCCGCATATGGCCCAGCGGAGTCACCTAGTGCAG”, the binding signal was 3270 fluorescence intensity (a.u.).
“ATGGGTGGAGGAGTGGGAGGGGATTAAATATCGGCGGAGGCGGAGTCACCTAGTGCAG”: the binding signal is 3330 fluorescence intensity (a.u.).
The same measure for “TTCATTAAATGGTGTTTATGTGAATGTAGAAAGATGATTGCGGAGTCACCTAGTGCAG”: 3470 fluorescence intensity (a.u.); for “CAACTGATCATCTTGGTGGTTGGCAATGGTCATAGGATGACGGAGTCACCTAGTGCAG”: 3200 fluorescence intensity (a.u.); for “TATGCGTGGGTCACTGGGCCCACACGTCATCCTCACGTGGCGGAGTCACCTAGTGCAG”: 49000 fluorescence intensity (a.u.).
Regarding “GCCACGCCTAAGGTTAGGCAAATTTGACAGGTGTTTGGTTCGGAGTCACCTAGTGCAG”, the binding signal is 3690 fluorescence intensity (a.u.).
“ATCCCAGCGCTTTACAGTAGGCGCAGCTGCCACGCGTCGCCGGAGTCACCTAGTGCAG”: the binding signal was 6380 fluorescence intensity (a.u.).
Consider “CTTCTTCTTCTTCCTGAGGTGGGTCAGGGTGGGCGTGGATCGGAGTCACCTAGTGCAG”, for which the binding signal was 3620 fluorescence intensity (a.u.).
On to “AGATAATGTTGCATTGCCTTCCGTCAGGTGACGTTTCTCCCGGAGTCACCTAGTGCAG”, for which the binding signal is 4180 fluorescence intensity (a.u.).
The same measure for “GCTCATCGTCATCACACGTCGCCGTCCCTTTCGGTTTCATCGGAGTCACCTAGTGCAG”: 6930 fluorescence intensity (a.u.); for “TTATGTGATTTCTCTCTCCTCAACTAATTGAATATTGTATCGGAGTCACCTAGTGCAG”: 3300 fluorescence intensity (a.u.); for “CAGCTGTTCCATGGGAAATATCTAGTGCGTGTGTGTGGATCGGAGTCACCTAGTGCAG”: 3530 fluorescence intensity (a.u.).
The same measure for “AGAGGGCAGAATACAAGAATTACATAAGTGACGCATGATTCGGAGTCACCTAGTGCAG”: 3790 fluorescence intensity (a.u.); for “AGAAGGTGGGGTTAGGGTCATGATGGTATGCTGAGCAGTGCGGAGTCACCTAGTGCAG”: 3300 fluorescence intensity (a.u.); for “CGAGGAGGAGCAACACGATGACGCGACAGAGCGTGTAGGTCGGAGTCACCTAGTGCAG”: 4180 fluorescence intensity (a.u.).
The same measure for “CTCCTCGCCGTCACCTCGATCGGCCCGTCAATCTGTTCTCCGGAGTCACCTAGTGCAG”: 3170 fluorescence intensity (a.u.).
With “AAGAGACACCTCTCTTCTCTGTGTTGGCGCAGGGAAGGAGCGGAGTCACCTAGTGCAG”, the binding signal was 6120 fluorescence intensity (a.u.).
With “ATTTCCACGTCGTCTGTTATTTTGTGCTGCTTCTCTCTTGCGGAGTCACCTAGTGCAG” the figure was 5250 fluorescence intensity (a.u.); with “CGCGTCATTCCCTCCCGCTTACGTGTGCTGGGCCAAAGTACGGAGTCACCTAGTGCAG”, 6080 fluorescence intensity (a.u.); with “TACATGTTAAATCGATTCCAGCTGCCAGCATAATCACATTCGGAGTCACCTAGTGCAG”, 3230 fluorescence intensity (a.u.).
The same measure for “TGACCTCTCCCATTAGCTCCGACGGTGACGAAGCAAGATGCGGAGTCACCTAGTGCAG”: 4650 fluorescence intensity (a.u.); for “AAGAGATATCCTGTAATAGAGTCTGACTCTTACTCTATTTCGGAGTCACCTAGTGCAG”: 3440 fluorescence intensity (a.u.).
Consider “CAAATGTCGATTTGGTTGTGGACATGTCAATGCCGATCAACGGAGTCACCTAGTGCAG”, for which the binding signal is 50200 fluorescence intensity (a.u.).
The same measure for “CATTGGCACTATCTCTGGTTGGCAACCACGTAATTCCCTCCGGAGTCACCTAGTGCAG”: 5190 fluorescence intensity (a.u.); for “CACATACGTTCTCCTCTCAACCAATCATCACTATTCTCCTCGGAGTCACCTAGTGCAG”: 3330 fluorescence intensity (a.u.).
With “GATGGACGCGTGAGTCGTGACGTTGCGAGTGGTGCGACTTCGGAGTCACCTAGTGCAG” the figure was 7740 fluorescence intensity (a.u.); with “CACTTATCCATCCGCTGACACCTGCACAAACAAACCAGTTCGGAGTCACCTAGTGCAG”, 4130 fluorescence intensity (a.u.); with “ACAGGCATAGAGGCTGCTGACACACACCATCCGATCTGTCCGGAGTCACCTAGTGCAG”, 4990 fluorescence intensity (a.u.).
The same measure for “ATCTAGTTTTGGATATGACATGTCCTAGTATTATGAATCTCGGAGTCACCTAGTGCAG”: 3920 fluorescence intensity (a.u.).
For the sequence “GGTTTGTAAACTGGCAGCGTAGACATGCTTTCCTGTGTTGCGGAGTCACCTAGTGCAG”, the binding signal was 5570 fluorescence intensity (a.u.).
With “TCCTTCGTCTCGACTCCAGTTGGGGAGGCATTCTTTTCTTCGGAGTCACCTAGTGCAG”, the binding signal is 3470 fluorescence intensity (a.u.).
The same measure for “TGTTCCTCCACGTCGCTCCGCCGCTCCGCCCGCCTTGCTTCGGAGTCACCTAGTGCAG”: 5090 fluorescence intensity (a.u.).
The same measure for “TTGGTGTAGTACTTCTCGTACACGTTGTTGCTTGTTGCCACGGAGTCACCTAGTGCAG”: 3260 fluorescence intensity (a.u.); for “TTCCTCATCGGCAACGGTGCTCGGGCTGTGGCAGGTGACACGGAGTCACCTAGTGCAG”: 3820 fluorescence intensity (a.u.); for “GATGATTGCCTGTGTGCCCTTGGTACTTGTGTGGAAGGTGCGGAGTCACCTAGTGCAG”: 3500 fluorescence intensity (a.u.).
